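Uptake of anthrax lethal toxin into cultured cells, read by FRET (460/530 nm ratio) and reported from the 460 nm channel; the cell line is not named here.
Each compound was tested as a concentration series from about 0.0005 to 40 µM.
The number is the fitted AC50 of the 460 nm signal alone; lower values mean a more potent effect. A falling signal goes with compounds filed as inhibitors or cytotoxic, a rising one with activators or fluorescent compounds (inferred from the filed classes).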

Values are in nM.
Common to all entries: measured here: 460 nm channel.
This is a side read-out of the assay, for part of the compounds, not drawn at random.
Potencies fitted to partial, single-point or poorly fitting curves are rough.
The first word of each remark tells which way the curve ran; it can be opposite to the aim of the assay.

| SMILES | AC50 (nM) | curve |
|---|---|---|
| `CC(C)(C)c1ccccc1OCCN1CCCC1` | 31622 | falling, single point |
| `O=C(Nc1cccc(F)c1)N1CCCC2(CCN(C(=O)c3cccc(F)c3)CC2)C1` | 31622 | falling, single point |
| `O=C1OCCC1Sc1nc2ccccc2n1Cc1ccccc1` (configuration not stated) | 5012 | falling, single point |
| `Cc1ccc(Cl)cc1N1CCN(CC(=O)Nc2ccc3[nH]c(=O)[nH]c3c2)CC1` | 1000 | falling, partial curve |
| `Cc1ccc2nc(SCC(=O)NC(=O)NCc3ccco3)[nH]c2c1` | 100 | falling, partial curve |
| `Cc1ccccc1CN1C(=O)C(O)(CC(=O)c2ccncc2)c2ccccc21` (configuration not stated) | 31622 | falling, single point |
| `CC1CN(C(=O)Cc2ccc(-c3ccccc3)cc2)CC(C)O1` (configuration not stated) | 3981 | rising, single point |
| `Cc1c(C#N)c2ncnc(-c3ccccc3)c2n1-c1ccccc1` | 3162 | rising, partial curve |
| `CCCNC(=O)N1N=C(c2ccc(N)cc2)c2cc3c(cc2[C@H]1C)OCO3` | 12589 | falling, single point |
| `C[C@H]1CCCC=CC2C[C@H](O)C[C@@H]2[C@H](O)/C=C\C(=O)O1` (some centres not stated) | 19.95 | falling, full curve |
| `CCNc1ncc2nc(-c3ccc(Cl)cc3)c(=O)n(C3CC3)c2n1` | 100 | rising, full curve, poor fit |
| `Cc1ccc2c(c1)N(CCC(=O)NCC1COc3ccccc3O1)C(=O)CO2` (configuration not stated) | 398.1 | falling, full curve, poor fit |
| `O=C(Cc1nc2ccccc2[nH]1)NCc1ccco1` | 12589 | rising, single point |
| `COc1ccccc1-c1cc(C(F)(F)F)nc(S(=O)(=O)CCCC(=O)N2CCOCC2)n1` | 1995 | falling, full curve |
| `O=S(=O)(c1ccccc1)N1CCC[C@@]2(CCN(Cc3ccccc3)C2)C1` | 3981 | falling, partial curve |
| `Cn1nc(-c2ccc(Cl)cc2)c2cc(C(=O)N3CCN(c4ccccc4)CC3)sc21` | 3162 | falling, full curve |
| `CCOC(=O)C1=C(C)NC2=C(C(=O)C(C(=O)OCC)C(c3ccco3)C2)C1c1ccccn1` (configuration not stated) | 15848 | rising, single point |
| `CN[C@H]1[C@H]2[C@H]3CCN2C[C@@H]1O3` | 12589 | falling, single point |
| `CCOC(=O)C1CCCN(C(=O)c2ccc(CS(=O)(=O)c3ccc(Br)cc3)o2)C1` (configuration not stated) | 15848 | rising, single point |
| `CCOC(=O)Cc1nnc(NC(=O)CSc2nnc3c4ccccc4n(C)c3n2)s1` | 6310 | rising, partial curve |
| `COc1ccc(-c2cc(-c3cc(F)ccc3O)[nH]n2)cc1OC` | 10000 | falling, partial curve |
| `Cc1ccc(C(=O)Cn2c(C)cc(C)c(C#N)c2=O)cc1` | 10000 | rising, partial curve, poor fit |
| `COc1ccc2c(c1OC)C(=O)OC2Nc1ccccc1S(=O)(=O)C(F)F` (configuration not stated) | 794.3 | falling, full curve, poor fit |
| `CCOC(=O)C1=CN(C)C=C(C(=O)OCC)C1c1ccsc1` | 10000 | rising, partial curve |
| `Cc1ccc(-n2c(CNc3ccc(F)cc3)nnc2SCC(=O)N2CCCC2)cc1` | 12589 | rising, partial curve, poor fit |
| `Cc1ccc2cccc(SCC(=O)NCc3ccco3)c2n1` | 6.31 | falling, full curve, poor fit |
| `CCOC(=O)Cn1c(=O)oc2cc(S(=O)(=O)Nc3cccc(C)c3)ccc21` | 31622 | falling, single point |
| `CCOC(=O)c1[nH]c2ccccc2c1NC(=O)c1ccc(Br)o1` | 31622 | falling, single point |
| `O=c1cnc2cncnc2n1Cc1ccccc1Cl` | 12589 | falling, partial curve |
| `CCOC(=O)C1=C(C)NC(C)=C(C(=O)OC)[C@H]1c1cccc([N+](=O)[O-])c1` | 0.631 | rising, full curve, poor fit |
| `CCOCCCn1c(=NC(=O)c2cccnc2)c(C(=O)OCC)cc2c(=O)n3ccccc3nc21` | 31622 | rising, single point |
| `Cc1ccc(CC(=O)Nc2cccc(C)n2)cc1` | 3.981 | falling, full curve, poor fit |
| `O=C(O)C1=CC(=C(c2ccc(O)c(C(=O)O)c2)c2ccc(O)c(C(=O)O)c2)C=CC1=O` | 15848 | falling, partial curve |

3 of the entries, repeated:

- O=C1OCCC1Sc1nc2ccccc2n1Cc1ccccc1 (configuration not stated) : AC50 5012 nM (falling, single point)
- Cc1ccc(-n2c(CNc3ccc(F)cc3)nnc2SCC(=O)N2CCCC2)cc1 : AC50 12589 nM (rising, partial curve, poor fit)
- CCOC(=O)c1[nH]c2ccccc2c1NC(=O)c1ccc(Br)o1 : AC50 31622 nM (falling, single point)

Source: PubChem BioAssay AID912 (NCATS, 2007).